Molecules are shown by their SMILES. The list is a part of this screen's results and no random one: it gathers some chemical classes. Not every dose and run of a compound is shown. T/C is the treated group as % of the vehicle group. Some entries give survivors of the animals treated and no T/C: the source holds a T/C of zero for them, seemingly a mark for toxic or unscored doses. Some survivor counts are full or nearly so, which does not show that the dose was tolerated: the source hardly ever lists a survival T/C far under the control, and the zero likely stands for such cases as well. Survivors were counted at the toxicity check, usually on the fifth day, unless a day is given; later deaths do not show. Schedules are NCI's codes, read here as Q, the interval in days (D) or hours (H), X, the number of doses. Some entries hold several experiments; the results are listed from low to high. Where survival is the endpoint, the PubChem record calls one and a half times the control and up active, and a quarter to a half above the control has no call in these data; cut-offs in other NCI protocols can differ.

The assay deals with Gardner 6C3HED lymphosarcoma ip, C3AKF1 mice, survival T/C. In words: NCI In Vivo Anticancer Drug Screen. Data for tumor model Lymphosarcoma Gardner 6C3HED (intraperitoneal) in C3AKF1 (CHKRF1) mice. The settings on record: T/C endpoint: survival time, mean or median, schedule: Q01DX010 (ip), vehicle: saline, higher T/C = longer survival. As to the method: The antitumor activity of compounds was measured in mice bearing transplantable tumors. Survival or tumor size were measured and the results are expressed as the measurement made in the treated group (T) divided by the measurement made in the vehicle treated control group (C). The tumor model used in this assay is Lymphosarcoma Gardner 6C3HED (intraperitoneal) in C3AKF1 (CHKRF1) mice

With `Cc1[nH]c(=O)[nH]c(=O)c1N(CCCl)CCCl`, the T/C (dose: 0.5 mg/kg/injection) was 118 % of control, the T/C (dose: 1.0 mg/kg/injection) is 103 % of control, the T/C (dose: 2.0 mg/kg/injection) is 129 % of control and the T/C (dose: 4.0 mg/kg/injection) was 200 % of control.
For `CN(N=O)C(=N)N[N+](=O)[O-]`, the T/C (dose: 8.0 mg/kg/injection) is 185 and 190 % of control; the T/C (dose: 16.0 mg/kg/injection) is 110 and 128 % of control; the T/C (dose: 32.0 mg/kg/injection) is 95 % of control. The survivor count by setting is: (dose: 32.0 mg/kg/injection) 6 of 6; (dose: 64.0 mg/kg/injection) 3 of 6 and 5 of 6.
Regarding `NC1CCCCC1.O=P(O)(N(CCCl)CCCl)N1CC1`, the T/C reads like this: (dose: 1.25 mg/kg/injection) 92 % of control; (dose: 2.5 mg/kg/injection) 100 % of control; (dose: 5.0 mg/kg/injection) 118 % of control; (dose: 10.0 mg/kg/injection) 151 % of control.

Values taken from PubChem BioAssay AID232 (DTP/NCI, 2004).
